In paper PMC7442798 one finds binding data, which are given here for one substance.

Amino acid sequences for entries named in this document (tags omitted). A change or cut given only in a name is not applied to a line headed by its entry.
UniProt Q96G74: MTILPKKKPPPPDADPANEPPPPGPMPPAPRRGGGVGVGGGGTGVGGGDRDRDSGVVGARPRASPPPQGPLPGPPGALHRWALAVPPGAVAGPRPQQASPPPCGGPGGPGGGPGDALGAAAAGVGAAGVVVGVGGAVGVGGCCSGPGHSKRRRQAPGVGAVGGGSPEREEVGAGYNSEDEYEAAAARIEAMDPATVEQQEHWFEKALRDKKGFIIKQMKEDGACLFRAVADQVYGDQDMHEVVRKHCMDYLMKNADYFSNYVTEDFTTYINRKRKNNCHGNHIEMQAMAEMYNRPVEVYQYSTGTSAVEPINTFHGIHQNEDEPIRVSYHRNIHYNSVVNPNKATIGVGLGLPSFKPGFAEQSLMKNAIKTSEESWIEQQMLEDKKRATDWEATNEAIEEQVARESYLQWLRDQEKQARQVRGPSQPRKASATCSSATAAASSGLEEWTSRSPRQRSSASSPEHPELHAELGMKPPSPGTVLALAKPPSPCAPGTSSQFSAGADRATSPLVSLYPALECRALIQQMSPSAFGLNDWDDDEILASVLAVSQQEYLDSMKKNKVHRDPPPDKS
UniProt Q14258: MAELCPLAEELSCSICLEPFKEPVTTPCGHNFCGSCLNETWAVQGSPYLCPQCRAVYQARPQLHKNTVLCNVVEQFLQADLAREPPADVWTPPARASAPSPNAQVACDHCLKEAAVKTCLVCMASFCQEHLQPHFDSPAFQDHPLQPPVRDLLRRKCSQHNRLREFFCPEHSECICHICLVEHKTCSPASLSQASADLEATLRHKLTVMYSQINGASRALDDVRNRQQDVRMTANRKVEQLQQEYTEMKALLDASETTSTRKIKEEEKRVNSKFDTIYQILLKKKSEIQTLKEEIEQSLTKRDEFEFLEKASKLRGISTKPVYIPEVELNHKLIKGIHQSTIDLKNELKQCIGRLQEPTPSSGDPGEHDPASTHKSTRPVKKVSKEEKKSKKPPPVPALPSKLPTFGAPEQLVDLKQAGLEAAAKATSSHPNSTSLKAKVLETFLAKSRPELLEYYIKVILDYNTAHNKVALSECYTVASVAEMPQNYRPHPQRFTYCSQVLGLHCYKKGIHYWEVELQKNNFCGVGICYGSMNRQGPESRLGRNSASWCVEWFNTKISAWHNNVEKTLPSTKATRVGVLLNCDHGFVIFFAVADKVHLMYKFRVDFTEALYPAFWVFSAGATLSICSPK

No constants are given. Whether binding was seen depends on the method and setting. Binding seen in cells or lysates may run through a third protein. A result given as binding can be weak or reduced; the word gives no strength.

The assay deals with Flag-tagged OTUD5 with the UIM domain deleted (human) (UniProt Q96G74). Briefly: co-IP; Hep3B cells transfected with Flag-OTUD5-WT or Flag-OTUD5-ΔUIM; TRIM25 coprecipitated with the Flag-tagged protein.

As to “TRIM25 E3 ubiquitin ligase (from UniProt Q14258 1-630)”, the binding entry is recorded as “binds”.
